Data from article PMC3226435, “Slice orientation and muscarinic acetylcholine receptor activation determine the involvement of N-methyl D-aspartate receptor subunit GluN2B in hippocampal area CA1 long-term depression” (Molecular Brain, 2011).
Results are given in words; binding and its absence hold for the method and conditions named. Binding seen in cells or lysates may run through a third protein. Some results given as binding are weak or reduced against the parent protein; the word gives no strength.

Amino acid sequences for entries named in this document (tags omitted). Residues count along the entry.
UniProt Q00960, residues 27-1482: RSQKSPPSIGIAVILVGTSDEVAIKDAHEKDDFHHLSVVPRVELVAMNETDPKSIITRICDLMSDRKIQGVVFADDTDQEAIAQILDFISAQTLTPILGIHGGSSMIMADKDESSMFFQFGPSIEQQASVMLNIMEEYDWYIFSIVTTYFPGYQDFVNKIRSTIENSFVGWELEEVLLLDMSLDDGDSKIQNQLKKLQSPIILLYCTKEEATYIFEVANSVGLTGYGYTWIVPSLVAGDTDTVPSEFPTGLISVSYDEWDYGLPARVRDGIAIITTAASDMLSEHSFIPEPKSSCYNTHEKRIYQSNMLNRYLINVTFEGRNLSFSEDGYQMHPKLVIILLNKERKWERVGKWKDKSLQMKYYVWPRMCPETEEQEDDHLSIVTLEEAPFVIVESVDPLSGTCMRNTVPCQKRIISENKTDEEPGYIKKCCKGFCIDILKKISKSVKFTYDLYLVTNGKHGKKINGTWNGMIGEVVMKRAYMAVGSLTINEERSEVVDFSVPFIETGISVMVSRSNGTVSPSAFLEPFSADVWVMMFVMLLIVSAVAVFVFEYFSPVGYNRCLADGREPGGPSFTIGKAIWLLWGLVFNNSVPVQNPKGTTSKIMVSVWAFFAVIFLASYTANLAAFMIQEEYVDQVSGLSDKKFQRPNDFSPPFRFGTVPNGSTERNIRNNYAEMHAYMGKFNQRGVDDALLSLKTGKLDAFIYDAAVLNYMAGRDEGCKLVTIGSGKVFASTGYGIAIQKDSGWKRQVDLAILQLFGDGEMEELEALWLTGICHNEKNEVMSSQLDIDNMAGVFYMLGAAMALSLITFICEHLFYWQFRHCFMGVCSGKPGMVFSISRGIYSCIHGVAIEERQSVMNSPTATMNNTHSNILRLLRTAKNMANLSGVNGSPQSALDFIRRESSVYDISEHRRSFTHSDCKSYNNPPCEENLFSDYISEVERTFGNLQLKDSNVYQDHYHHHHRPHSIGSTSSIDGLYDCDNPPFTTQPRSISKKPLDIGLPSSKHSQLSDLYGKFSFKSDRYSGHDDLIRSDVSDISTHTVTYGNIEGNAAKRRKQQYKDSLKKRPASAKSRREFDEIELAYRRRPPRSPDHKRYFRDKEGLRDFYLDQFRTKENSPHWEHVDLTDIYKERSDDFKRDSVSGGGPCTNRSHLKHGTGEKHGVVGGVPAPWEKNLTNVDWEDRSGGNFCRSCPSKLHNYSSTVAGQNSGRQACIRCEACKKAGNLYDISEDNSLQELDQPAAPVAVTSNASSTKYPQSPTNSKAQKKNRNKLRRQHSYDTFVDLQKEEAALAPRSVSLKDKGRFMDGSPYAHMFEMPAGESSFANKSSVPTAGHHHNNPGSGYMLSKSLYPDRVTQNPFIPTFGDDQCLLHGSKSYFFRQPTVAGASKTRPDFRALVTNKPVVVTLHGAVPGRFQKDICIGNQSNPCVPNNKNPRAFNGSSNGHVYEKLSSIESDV

Target: N-methyl D-aspartate receptor subunit GluN2B (rat (endogenous in hippocampal slices)) (UniProt Q00960)
Test: co-IP; GluN2B immunoprecipitated with rabbit polyclonal anti-GluN2B C-terminal antibody on protein A beads from 500 ug RIPA lysate of rat hippocampal slices (sagittal control or 20 uM scopolamine for 2 hrs; untreated coronal or sagittal), overnight at 4°C, four washes in RIPA; Western blot for RasGRF1, RasGRF1 normalized to GluN2B

B1: Ras Guanine nucleotide Release Factor 1 (natural protein, rat (endogenous in hippocampal slices), UniProt P28818 1-1244, looked up)
chain: MQKAIRLNDGHVVSLGLLAQRDGTRKGYLSKRSSDNPKWQTKWFALLQNLLFYFESDSSSRPSGLYLLEGSICKRMPSPKRGTSSKESDKQHHYFTVNFSNDSQKSLELRTDDSKDCDEWVAAIARASYKILATEHEALMQKYLHLLQVVETEKTVAKQLRQQLEDGEVEIERLKAEIANLIKDNERIQSNQLVAPEDEDSDIKKIKKVQSFLRGWLCRRKWKNIIQDYIRSPHADSMRKRNQVVFSMLEAEAEYVQQLHILVNNFLRPLRMAASSKKPPITHDDVSSIFLNSETIMFLHQIFYQGLKARIASWPTLVLADLFDILLPMLNIYQEFVRNHQYSLQILAHCKQNRDFDKLLKQYEAKPDCEERTLETFLTYPMFQIPRYILTLHELLAHTPHEHVERNSLDYAKSKLEELSRVMHDEVSETENIRKNLAIERMITEGCEILLDTSQTFVRQGSLIQVPMSEKGKINKGRLGSLSLKKEGERQCFLFSKHLIICTRGSGSKLHLTKNGVISLIDCTLLDDPENMDDDGKGQEVDHLDFKIWVEPKDSPPFTVILVASSRQEKAAWTSDIIQCVDNIRCNGLMMNAFEENSKVTVPQMIKSDASLYCDDVDIRFSKTMNSCKVLQIRYASVERLLERLTDLRFLSIDFLNTFLHSYRVFTDAVVVLDKLISIYKKPITAIPARSLELLFSSSHNTKLLYGDAPKSPRASRKFSSPPPLAIGTSSPVRRRKLSLNIPIITGGKALELASLGCPSDGYTNIHSPISPFGKTTLDTSKLCVASSLTRTPEEIDMTTLEESSGFRKPTSDILKEESDDDQSDVDDTEVSPPTPKSFRNRITQEFPLFNYNSGIMMTCRDLMDSNRSPLSATSAFAIATAGANESPANKEIYRRMSLANTGYSSDQRNIDKEFVIRRAATNRVLNVLRHWVTKHSQDFETDDLLKYKVICFLEEVMHDPDLLPQERKAAANIMRTLTQEEITENHSMLDELLLMTEGVKTEPFENHSAMEIAEQLTLLDHLVFKSIPYEEFFGQGWMKADKNERTPYIMKTTRHFNHISNLIASEILRNEEVSARASTIEKWVAVADICRCLHNYNAVLEITSSINRSAIFRLKKTWLKVSKQTKSLFDKLQKLVSSDGRFKNLRETLRNCDPPCVPYLGMYLTDLAFLEEGTPNYTEDGLVNFSKMRMISHIIREIRQFQQTTYKIEPQPKVTQYLVDETFVLDDESLYEASLRIEPKLPT
notes: RasGRF1, Ras-specific guanine nucleotide exchange factor, endogenous in hippocampal slices of male Sprague-Dawley rats aged 14-21 days; Detected in the GluN2B immunoprecipitate by Western blot with a rabbit polyclonal anti-RasGRF1 antibody; also called RasGRF1; source: endogenous, lysate of rat hippocampal slices (RIPA buffer)
  binding: binds
